Laboratory results from paper PMC4982761.
These are yes or no findings as the source states them, for the method shown. Binding seen in cells or lysates may run through a third protein. Some results given as binding are weak or reduced against the parent protein; the word gives no strength. For part of these data: Sequences can lack the tags named with a protein.

The chains behind the UniProt entries cited, without tags or fusion partners.
UniProt P42582: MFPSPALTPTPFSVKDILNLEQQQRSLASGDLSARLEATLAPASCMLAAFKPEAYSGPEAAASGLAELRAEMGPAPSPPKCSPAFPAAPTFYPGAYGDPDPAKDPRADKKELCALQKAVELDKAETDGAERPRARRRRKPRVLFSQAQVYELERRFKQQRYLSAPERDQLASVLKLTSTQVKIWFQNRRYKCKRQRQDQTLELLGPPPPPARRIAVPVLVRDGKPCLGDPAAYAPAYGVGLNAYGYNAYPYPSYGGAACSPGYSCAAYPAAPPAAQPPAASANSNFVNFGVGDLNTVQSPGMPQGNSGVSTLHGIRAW
UniProt O70133: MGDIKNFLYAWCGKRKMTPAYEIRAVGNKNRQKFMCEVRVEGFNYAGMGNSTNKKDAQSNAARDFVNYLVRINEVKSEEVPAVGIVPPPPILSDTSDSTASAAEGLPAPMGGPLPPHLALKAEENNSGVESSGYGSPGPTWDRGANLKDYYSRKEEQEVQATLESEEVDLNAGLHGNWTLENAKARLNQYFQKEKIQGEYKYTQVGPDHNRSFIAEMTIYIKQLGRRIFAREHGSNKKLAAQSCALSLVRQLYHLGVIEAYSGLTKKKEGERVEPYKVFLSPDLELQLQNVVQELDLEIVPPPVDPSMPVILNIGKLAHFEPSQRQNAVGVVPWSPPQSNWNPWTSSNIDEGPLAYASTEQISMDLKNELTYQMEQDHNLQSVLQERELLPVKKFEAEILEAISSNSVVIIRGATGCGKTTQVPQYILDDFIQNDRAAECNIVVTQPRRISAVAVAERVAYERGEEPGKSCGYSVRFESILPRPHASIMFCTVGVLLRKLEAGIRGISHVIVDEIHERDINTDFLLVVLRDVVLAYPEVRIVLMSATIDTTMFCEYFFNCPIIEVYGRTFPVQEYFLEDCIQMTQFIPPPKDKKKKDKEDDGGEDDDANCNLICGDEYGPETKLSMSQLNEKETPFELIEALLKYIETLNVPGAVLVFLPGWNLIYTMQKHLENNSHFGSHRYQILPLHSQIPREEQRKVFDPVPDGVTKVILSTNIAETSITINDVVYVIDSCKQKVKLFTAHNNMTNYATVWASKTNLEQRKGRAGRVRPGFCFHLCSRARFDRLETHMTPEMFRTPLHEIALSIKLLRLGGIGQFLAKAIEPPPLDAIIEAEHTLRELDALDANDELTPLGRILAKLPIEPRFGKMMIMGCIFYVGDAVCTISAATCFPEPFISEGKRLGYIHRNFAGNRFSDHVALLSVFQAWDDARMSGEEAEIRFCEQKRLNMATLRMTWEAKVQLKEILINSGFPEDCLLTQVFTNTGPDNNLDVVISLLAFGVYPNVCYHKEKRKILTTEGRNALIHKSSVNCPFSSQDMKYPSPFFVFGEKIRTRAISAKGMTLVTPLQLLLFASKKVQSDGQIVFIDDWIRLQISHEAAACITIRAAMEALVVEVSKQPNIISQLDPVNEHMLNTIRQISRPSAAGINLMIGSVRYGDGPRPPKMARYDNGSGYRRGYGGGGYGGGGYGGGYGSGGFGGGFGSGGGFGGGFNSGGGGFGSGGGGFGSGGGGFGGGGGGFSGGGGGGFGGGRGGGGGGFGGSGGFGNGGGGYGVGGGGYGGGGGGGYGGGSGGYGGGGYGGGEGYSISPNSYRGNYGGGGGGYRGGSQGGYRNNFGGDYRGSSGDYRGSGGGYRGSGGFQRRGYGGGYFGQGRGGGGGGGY
UniProt A2AKX3: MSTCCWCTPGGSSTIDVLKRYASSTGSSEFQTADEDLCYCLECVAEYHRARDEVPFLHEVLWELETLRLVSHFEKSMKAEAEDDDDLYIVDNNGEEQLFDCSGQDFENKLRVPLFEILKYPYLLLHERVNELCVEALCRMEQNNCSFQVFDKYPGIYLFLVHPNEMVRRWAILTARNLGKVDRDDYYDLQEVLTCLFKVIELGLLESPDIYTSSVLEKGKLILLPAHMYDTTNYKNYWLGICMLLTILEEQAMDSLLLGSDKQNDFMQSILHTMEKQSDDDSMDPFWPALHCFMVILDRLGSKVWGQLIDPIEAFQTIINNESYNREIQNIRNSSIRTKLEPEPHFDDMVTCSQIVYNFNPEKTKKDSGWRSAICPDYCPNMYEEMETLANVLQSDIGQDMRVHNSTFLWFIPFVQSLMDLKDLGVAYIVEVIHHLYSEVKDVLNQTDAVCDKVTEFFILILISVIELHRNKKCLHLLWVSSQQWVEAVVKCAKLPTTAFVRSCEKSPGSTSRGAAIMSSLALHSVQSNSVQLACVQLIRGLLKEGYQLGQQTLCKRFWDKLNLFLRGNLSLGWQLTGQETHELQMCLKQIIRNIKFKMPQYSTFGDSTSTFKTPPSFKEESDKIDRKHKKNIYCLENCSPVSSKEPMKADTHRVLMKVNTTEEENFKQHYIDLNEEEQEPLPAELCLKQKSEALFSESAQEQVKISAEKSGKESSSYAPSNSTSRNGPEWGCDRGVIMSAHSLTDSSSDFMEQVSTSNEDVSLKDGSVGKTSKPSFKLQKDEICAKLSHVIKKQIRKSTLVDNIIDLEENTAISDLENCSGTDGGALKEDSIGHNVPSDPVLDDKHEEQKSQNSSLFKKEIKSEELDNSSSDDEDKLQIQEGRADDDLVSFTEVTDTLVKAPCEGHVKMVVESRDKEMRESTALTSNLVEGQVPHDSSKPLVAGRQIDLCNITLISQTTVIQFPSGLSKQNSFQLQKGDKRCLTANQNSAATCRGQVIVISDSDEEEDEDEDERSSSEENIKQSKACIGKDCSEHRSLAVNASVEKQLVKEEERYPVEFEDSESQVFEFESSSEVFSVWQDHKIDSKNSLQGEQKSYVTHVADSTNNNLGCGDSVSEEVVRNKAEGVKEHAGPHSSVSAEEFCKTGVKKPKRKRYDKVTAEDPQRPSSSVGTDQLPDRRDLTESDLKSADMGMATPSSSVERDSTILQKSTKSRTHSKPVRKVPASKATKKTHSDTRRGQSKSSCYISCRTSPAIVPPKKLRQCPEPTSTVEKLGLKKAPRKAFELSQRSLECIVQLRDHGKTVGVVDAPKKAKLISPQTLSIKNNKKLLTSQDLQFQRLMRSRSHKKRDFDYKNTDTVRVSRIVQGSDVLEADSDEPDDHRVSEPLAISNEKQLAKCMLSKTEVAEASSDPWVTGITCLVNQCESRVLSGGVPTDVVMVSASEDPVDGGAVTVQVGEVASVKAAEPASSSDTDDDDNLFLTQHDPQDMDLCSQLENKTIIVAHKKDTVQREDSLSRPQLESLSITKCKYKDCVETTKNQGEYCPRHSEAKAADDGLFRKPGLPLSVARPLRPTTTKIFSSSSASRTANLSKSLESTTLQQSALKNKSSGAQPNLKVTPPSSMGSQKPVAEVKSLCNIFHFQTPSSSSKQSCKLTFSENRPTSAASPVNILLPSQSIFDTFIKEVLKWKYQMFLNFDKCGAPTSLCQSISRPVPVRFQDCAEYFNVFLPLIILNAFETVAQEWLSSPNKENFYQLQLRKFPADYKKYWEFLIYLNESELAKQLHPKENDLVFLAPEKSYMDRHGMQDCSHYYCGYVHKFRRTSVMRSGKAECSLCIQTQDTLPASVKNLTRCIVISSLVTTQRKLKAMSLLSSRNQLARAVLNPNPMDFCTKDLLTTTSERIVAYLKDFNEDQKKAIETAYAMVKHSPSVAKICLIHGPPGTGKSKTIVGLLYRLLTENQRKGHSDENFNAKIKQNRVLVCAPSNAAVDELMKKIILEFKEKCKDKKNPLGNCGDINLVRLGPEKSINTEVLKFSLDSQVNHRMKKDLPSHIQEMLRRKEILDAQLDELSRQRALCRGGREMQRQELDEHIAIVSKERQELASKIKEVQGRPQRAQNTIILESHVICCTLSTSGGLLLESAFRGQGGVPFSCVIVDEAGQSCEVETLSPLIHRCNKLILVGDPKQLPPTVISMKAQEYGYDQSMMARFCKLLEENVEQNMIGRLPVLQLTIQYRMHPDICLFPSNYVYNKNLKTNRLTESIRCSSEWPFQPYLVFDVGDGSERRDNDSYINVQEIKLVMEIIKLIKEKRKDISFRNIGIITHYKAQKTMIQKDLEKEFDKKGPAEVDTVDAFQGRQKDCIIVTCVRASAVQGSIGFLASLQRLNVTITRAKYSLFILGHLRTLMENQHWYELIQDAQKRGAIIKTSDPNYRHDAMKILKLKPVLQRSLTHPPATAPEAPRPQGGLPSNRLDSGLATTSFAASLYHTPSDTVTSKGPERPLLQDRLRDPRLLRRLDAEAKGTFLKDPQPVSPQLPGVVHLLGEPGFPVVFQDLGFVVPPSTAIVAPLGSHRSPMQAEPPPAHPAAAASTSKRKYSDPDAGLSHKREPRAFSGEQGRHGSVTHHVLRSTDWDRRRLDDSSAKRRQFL

Legend:
[1] = biological target: Nkx2-5 (mouse (endogenous in E12.5 hearts)) (UniProt P42582); test: co-IP; endogenous proteins immunoprecipitated with the indicated antibodies from nuclear extracts of E12.5 mouse hearts, Western blotting; in Figure 3D extracts exposed to 20 µg/ml EtBr or 50 µg/ml RNaseA
Flag-Xrn2 = biological target: T1, Flag-Xrn2 (UniProt Q9DBR1); test: co-IP; HA-Nkx2-5, Flag-Xrn2 and their deletion mutants cotransfected into C3H10T1/2 cells; immunoprecipitated from nuclear extracts with M2 (Flag) or HA antibody; Western blotting
T1 sequence: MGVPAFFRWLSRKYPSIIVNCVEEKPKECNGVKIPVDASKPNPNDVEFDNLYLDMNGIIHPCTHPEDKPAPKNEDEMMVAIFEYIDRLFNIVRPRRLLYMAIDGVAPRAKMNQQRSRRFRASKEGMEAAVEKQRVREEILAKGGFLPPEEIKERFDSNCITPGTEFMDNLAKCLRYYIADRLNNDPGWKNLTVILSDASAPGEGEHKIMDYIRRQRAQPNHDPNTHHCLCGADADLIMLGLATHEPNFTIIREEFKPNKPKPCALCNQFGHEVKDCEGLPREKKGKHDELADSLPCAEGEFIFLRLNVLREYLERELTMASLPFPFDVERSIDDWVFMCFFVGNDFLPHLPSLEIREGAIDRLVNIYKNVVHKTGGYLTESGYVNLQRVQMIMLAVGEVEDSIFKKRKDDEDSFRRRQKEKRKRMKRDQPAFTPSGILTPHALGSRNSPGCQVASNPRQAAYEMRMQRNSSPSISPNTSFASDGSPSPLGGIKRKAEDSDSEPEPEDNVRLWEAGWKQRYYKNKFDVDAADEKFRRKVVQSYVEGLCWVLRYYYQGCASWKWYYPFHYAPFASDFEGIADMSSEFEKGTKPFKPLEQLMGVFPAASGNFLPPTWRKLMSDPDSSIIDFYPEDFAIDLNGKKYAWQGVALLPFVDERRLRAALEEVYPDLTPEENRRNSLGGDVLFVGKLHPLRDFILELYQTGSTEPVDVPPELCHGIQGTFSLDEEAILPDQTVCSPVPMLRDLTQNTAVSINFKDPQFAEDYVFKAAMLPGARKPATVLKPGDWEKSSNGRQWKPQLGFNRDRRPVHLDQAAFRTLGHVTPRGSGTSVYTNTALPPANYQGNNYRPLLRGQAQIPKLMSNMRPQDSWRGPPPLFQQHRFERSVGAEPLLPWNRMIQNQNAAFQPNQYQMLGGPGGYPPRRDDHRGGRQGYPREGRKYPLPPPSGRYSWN

Substance	binding [1]	binding (Flag-Xrn2)
Dhx9 (from UniProt O70133 1-1380) (enzyme)	no binding	–
HA-Nkx2-5 (from UniProt P42582 1-318)	–	binds
Senataxin (from UniProt A2AKX3 1-2646) (enzyme)	no binding	–
